The record followed here is PMC10529755.

Chains of the proteins cited; added tags and fusions are not shown. Lines headed by an entry give the natural chain unless they say otherwise; changes in a name come on top. A line that says so, or that is headed by a name, gives the form on record, which may keep a tag or linker.
UniProt P52480: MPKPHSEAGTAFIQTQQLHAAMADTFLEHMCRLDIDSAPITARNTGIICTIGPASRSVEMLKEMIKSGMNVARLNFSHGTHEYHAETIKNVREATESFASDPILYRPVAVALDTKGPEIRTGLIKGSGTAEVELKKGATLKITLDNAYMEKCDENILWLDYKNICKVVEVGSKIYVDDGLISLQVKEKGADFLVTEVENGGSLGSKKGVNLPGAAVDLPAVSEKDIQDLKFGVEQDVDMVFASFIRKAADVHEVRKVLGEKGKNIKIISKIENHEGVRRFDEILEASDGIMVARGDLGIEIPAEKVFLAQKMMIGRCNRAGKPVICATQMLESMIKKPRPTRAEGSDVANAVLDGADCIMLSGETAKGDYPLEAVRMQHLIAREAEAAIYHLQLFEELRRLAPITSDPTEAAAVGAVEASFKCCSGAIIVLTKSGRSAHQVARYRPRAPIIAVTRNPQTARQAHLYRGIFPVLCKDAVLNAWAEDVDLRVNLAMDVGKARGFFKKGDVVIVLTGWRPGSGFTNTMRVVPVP
PKM1 (P52480-2, form named): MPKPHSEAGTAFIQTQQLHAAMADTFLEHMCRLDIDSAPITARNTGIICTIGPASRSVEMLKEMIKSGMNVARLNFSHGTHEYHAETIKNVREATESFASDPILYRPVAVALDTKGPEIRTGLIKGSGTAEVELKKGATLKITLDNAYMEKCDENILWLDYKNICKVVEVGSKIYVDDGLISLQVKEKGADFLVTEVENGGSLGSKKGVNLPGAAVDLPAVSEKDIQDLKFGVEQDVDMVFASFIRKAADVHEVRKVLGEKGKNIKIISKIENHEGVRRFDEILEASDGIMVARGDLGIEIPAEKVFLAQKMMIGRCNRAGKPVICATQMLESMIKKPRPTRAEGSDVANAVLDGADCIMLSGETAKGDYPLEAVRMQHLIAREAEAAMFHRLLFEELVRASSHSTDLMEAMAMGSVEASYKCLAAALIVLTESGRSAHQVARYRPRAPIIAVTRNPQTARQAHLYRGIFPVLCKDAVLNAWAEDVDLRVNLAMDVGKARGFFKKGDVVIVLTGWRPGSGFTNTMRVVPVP

Results are given in words; binding and its absence hold for the method and conditions named. Binding seen in cells or lysates may run through a third protein. Some binding calls cover weakened binding; strength is not graded here.

In test [1] the target is T1, pantothenate kinase 4 (PANK4) (mouse (endogenous in mouse lens epithelium)) (UniProt Q80YV4).
T1 sequence: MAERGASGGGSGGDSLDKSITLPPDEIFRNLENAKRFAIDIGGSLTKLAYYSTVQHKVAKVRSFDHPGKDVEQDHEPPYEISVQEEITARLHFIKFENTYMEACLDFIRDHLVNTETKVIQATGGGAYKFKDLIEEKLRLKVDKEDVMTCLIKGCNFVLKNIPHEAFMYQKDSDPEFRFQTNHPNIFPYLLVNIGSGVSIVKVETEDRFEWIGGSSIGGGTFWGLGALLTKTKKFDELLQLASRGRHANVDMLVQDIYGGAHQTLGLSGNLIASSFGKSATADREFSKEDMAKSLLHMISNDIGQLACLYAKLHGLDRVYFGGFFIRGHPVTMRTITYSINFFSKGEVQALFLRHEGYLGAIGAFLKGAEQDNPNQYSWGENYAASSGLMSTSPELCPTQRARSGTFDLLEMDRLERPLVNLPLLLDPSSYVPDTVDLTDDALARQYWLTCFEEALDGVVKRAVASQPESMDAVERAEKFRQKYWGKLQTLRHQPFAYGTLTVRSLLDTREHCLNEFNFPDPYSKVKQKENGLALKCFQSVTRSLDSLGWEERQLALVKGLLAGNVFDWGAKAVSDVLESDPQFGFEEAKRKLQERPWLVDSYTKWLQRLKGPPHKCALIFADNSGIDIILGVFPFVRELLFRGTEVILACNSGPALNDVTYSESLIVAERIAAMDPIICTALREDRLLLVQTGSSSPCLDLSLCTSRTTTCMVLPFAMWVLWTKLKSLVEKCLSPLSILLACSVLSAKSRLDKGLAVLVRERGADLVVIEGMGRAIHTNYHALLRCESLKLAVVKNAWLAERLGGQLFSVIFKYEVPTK
The test is described as follows: co-IP; WT mouse lens epithelium lysate (300 μg in 500 μL NP40 lysis buffer with PMSF); 5 µg PKM1, PKM2 or PANK4 antibody on SureBeads, IgG as control; 1 h at RT; washed with PBS-T; eluate blotted.

Test [2] concerns the target pyruvate kinase M2 isozyme (PKM2) (mouse (endogenous in mouse lens epithelium)) (UniProt P52480). The description is as above.

As to “pyruvate kinase M2 isozyme (PKM2) (from UniProt P52480 1-531)”, in test [1], the binding entry is listed as “binds”.
Regarding PKM1 (from UniProt P52480-2 1-531), the binding entry in test [1] is “no binding”.

B1: pantothenate kinase 4 (PANK4) (protein, UniProt Q80YV4 1-820)
chain: MAERGASGGGSGGDSLDKSITLPPDEIFRNLENAKRFAIDIGGSLTKLAYYSTVQHKVAKVRSFDHPGKDVEQDHEPPYEISVQEEITARLHFIKFENTYMEACLDFIRDHLVNTETKVIQATGGGAYKFKDLIEEKLRLKVDKEDVMTCLIKGCNFVLKNIPHEAFMYQKDSDPEFRFQTNHPNIFPYLLVNIGSGVSIVKVETEDRFEWIGGSSIGGGTFWGLGALLTKTKKFDELLQLASRGRHANVDMLVQDIYGGAHQTLGLSGNLIASSFGKSATADREFSKEDMAKSLLHMISNDIGQLACLYAKLHGLDRVYFGGFFIRGHPVTMRTITYSINFFSKGEVQALFLRHEGYLGAIGAFLKGAEQDNPNQYSWGENYAASSGLMSTSPELCPTQRARSGTFDLLEMDRLERPLVNLPLLLDPSSYVPDTVDLTDDALARQYWLTCFEEALDGVVKRAVASQPESMDAVERAEKFRQKYWGKLQTLRHQPFAYGTLTVRSLLDTREHCLNEFNFPDPYSKVKQKENGLALKCFQSVTRSLDSLGWEERQLALVKGLLAGNVFDWGAKAVSDVLESDPQFGFEEAKRKLQERPWLVDSYTKWLQRLKGPPHKCALIFADNSGIDIILGVFPFVRELLFRGTEVILACNSGPALNDVTYSESLIVAERIAAMDPIICTALREDRLLLVQTGSSSPCLDLSLCTSRTTTCMVLPFAMWVLWTKLKSLVEKCLSPLSILLACSVLSAKSRLDKGLAVLVRERGADLVVIEGMGRAIHTNYHALLRCESLKLAVVKNAWLAERLGGQLFSVIFKYEVPTK
Consider B1, for which the binding result in test [2] is reported as “binds”.
